Publication PMC11953442, “PIP2-mediated oligomerization of the endosomal sodium/proton exchanger NHE9” (Nature Communications, 2025)
Results are given in words; binding and its absence hold for the method and conditions named. Some entries that bind do so weakly or less than the wild type.

Target: T1, E. coli NhaA WT-like triple mutant (A109T, Q277G, L296M) (E. coli), P13738
T1 chain: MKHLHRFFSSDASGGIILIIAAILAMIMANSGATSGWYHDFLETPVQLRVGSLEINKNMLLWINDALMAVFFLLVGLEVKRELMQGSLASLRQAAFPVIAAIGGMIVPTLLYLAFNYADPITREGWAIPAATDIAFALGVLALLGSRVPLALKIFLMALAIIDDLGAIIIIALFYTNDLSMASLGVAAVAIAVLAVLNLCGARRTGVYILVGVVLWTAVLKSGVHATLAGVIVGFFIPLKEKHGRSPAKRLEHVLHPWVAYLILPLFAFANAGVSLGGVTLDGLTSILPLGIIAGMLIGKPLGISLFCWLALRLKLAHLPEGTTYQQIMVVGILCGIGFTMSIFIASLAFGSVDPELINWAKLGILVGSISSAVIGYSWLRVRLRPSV
Assay: cryo-EM structure; NhaA triple-mutant-GFP fusion in DDM with 3 mM cardiolipin (18:1) added, 20 mM Tris-HCl pH 7.5, 150 mM NaCl, 0.03% DDM; three cardiolipins modelled at the dimer interface; both purified
Conditions: remark: other sources report otherwise

- binding: binds
B1: E. coli NhaA WT-like triple mutant (A109T, Q277G, L296M), P13738 1-388 (natural protein)
chain: MKHLHRFFSSDASGGIILIIAAILAMIMANSGATSGWYHDFLETPVQLRVGSLEINKNMLLWINDALMAVFFLLVGLEVKRELMQGSLASLRQAAFPVIAAIGGMIVPTLLYLAFNYADPITREGWAIPAATDIAFALGVLALLGSRVPLALKIFLMALAIIDDLGAIIIIALFYTNDLSMASLGVAAVAIAVLAVLNLCGARRTGVYILVGVVLWTAVLKSGVHATLAGVIVGFFIPLKEKHGRSPAKRLEHVLHPWVAYLILPLFAFANAGVSLGGVTLDGLTSILPLGIIAGMLIGKPLGISLFCWLALRLKLAHLPEGTTYQQIMVVGILCGIGFTMSIFIASLAFGSVDPELINWAKLGILVGSISSAVIGYSWLRVRLRPSV
